According to PubChem BioAssay AID485298 (National Center for Advancing Translational Sciences (NCATS), 2010):
The whole screen tested about 320,000 compounds, of which about 740 (0.23%) were called active. Inconclusive means that the source gave no clear call. Such entries were picked first, then a sample of the others. The call rests on the fitted dose curve; in most records, active means well fitted activation curve with a large enough effect; inconclusive means small, poorly fitted or top-dose-only effect; inactive means no such curve, though single readings can be large or run the other way. Potencies of inconclusive entries are doubtful fits and often do not repeat. Some structures have more than one record in an assay (separate samples or runs), and their calls can disagree.

Assay: qHTS Assay for Small Molecule Inhibitors of Mitochondrial Division or Activators of Mitochondrial Fusion; further: nearly all actives have a fitted effect of over 45% in size;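 on growth rescue (activation): temperature-sensitive fusion mutants such as fzo1-1 at 37 °C on non-fermentable ethanol glycerol medium; % of control where 0% means no effect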
Settings: S. cerevisiae fusion-defective mutant growth rescue, CellTiterGlo 48 h; series mostly up to 46.1 µM; growth rescue (activation): at the top concentration
How it was run: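 Read-out: ATP-based luminescence (CellTiterGlo, 10 min ambient) reporting growth of fusion-defective ts yeast after 48 hours at 37C on glycerol/ethanol YPEG medium in the presence of compound.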
Potency means the concentration at half of the fitted maximal effect.

SMILES	Potency	growth rescue (activation)
O=c1c2ccccc2[se]n1-c1ccccc1	active: 0.461 µM	
c1ccc(CCNCc2ccccc2)cc1		inactive: -4.04%
N#CC(C#N)=Cc1ccc(O)c(O)c1	inconclusive: 11.6 µM [activator, partial curve]	
CC(C)[C@H]1C(=O)O[C@@H]2CCN3CC=C(COC(=O)[C@](C)(O)[C@]1(C)O)[C@H]23		inactive: 1.11%
CCN(CC)C(=O)Oc1ccc(OC(=O)N(CC)CC)cc1	inconclusive: 5.62 µM [activator, partial curve]	
CCN1CCN(c2ccc([N+](=O)[O-])cc2C#N)CC1	inconclusive: 12.6 µM [activator, partial curve]	
O=C(c1cccc(C(F)(F)F)c1)C1CCCN(Cc2ccccc2O)C1 (configuration not stated)		inactive: 8.16%
COc1ccc2[nH]c3c(c2c1)CCNC3	inconclusive: 0.082 µM [activator, full curve, poor fit]	
CCCSc1nc(O)c(CC)c(=O)n1C(C)CC (configuration not stated)	inconclusive: 20 µM [activator, partial curve]	
O=C(COC(=O)c1ccc(O)cc1)Nc1ccc(Cl)cc1C(=O)c1ccccc1	inconclusive: 14.1 µM [activator, partial curve]	
C=CCN1CC[C@]23c4c5ccc(O)c4O[C@H]2C(=O)CC[C@@]3(O)[C@H]1C5	inactive	
Cc1cc(N(CCCl)CCCl)ccc1/C=N/NC(=O)c1ccco1		inactive: 1.83%
NC(=O)c1cc(N2CC2)c([N+](=O)[O-])cc1[N+](=O)[O-]		inactive: 3.11%
COc1ccc(NP(=O)(Oc2ccc(Cl)cc2)Oc2ccc(Cl)cc2)cc1OC	inconclusive: 35.5 µM [activator, single point]	
COC(=O)C1=C(c2ccc(F)cc2OCc2ccccc2)C[C@@H]2CC[C@H]1N2C(=O)N1CCCCC1	inconclusive: 7.08 µM [activator, single point]	
COC(=O)C1=C(c2ccc3ccccc3c2)C[C@@H]2CC[C@H]1N2C(=O)NCc1ccc(C(F)(F)F)cc1		inactive: -3.49%
O=[N+]([O-])c1cc(O)c(O)c([N+](=O)[O-])c1	inconclusive: 23.1 µM [activator, single point]	
CCOc1ccc(N2C(=O)NC(=O)/C(=C\c3ccc(N4CCOCC4)cc3C)C2=O)cc1		inactive: -5.38%
Cc1cccc(C)c1NC(=O)c1cccn(Cc2ccc3c(c2)OC(F)(F)O3)c1=O	inconclusive: 22.4 µM [activator, single point]	
CCOC(=O)c1c(-c2ccc(OC)cc2)oc2ccc(OC(=O)N(C)C)cc12	inconclusive: 12.6 µM [activator, single point]	
CCCNC1=C(C)C(=O)C2=C(C1=O)C(COC(N)=O)[C@]1(OC)C3NC3CN21 (some centres not stated)	inconclusive: 7.94 µM [activator, partial curve]	
CC(C)N(CCC(C(N)=O)(c1ccccc1)c1ccccn1)C(C)C (configuration not stated)	inconclusive: 0.103 µM [activator, full curve, poor fit]	
CCC1CCCCN1CCCNS(=O)(=O)c1ccc2c(c1)oc(=O)n2C (configuration not stated)	inconclusive: 35.5 µM [activator, partial curve]	

SMILES	Potency	growth rescue (activation)
COC(=O)C1=C(c2ccc(OC(F)(F)F)cc2)C[C@@H]2CC[C@H]1N2C(=O)NCc1ccc(F)cc1	inconclusive: 7.94 µM [activator, single point]	
Cc1cccc(N2CCc3c2nc2ccccc2c3N)c1	inactive	
COc1ccccc1OCC(=O)Nc1ccc(Cl)cc1C(=O)c1ccccc1	inconclusive: 15.8 µM [activator, single point]	
CCn1c(P(C)(=O)O)nc2ccccc21		inactive: -3.78%
C=CCn1c(O)c(C(C)=NCCCn2ccnc2)c(=O)[nH]c1=O		inactive: -3.26%
COCCCn1c(N)c(C(=O)Nc2ccccc2)c2nc3ccccc3nc21	inconclusive: 11.2 µM [activator, partial curve]	
CN(C)P1(N(C)C)=NC(C(F)(F)F)=NC(C(F)(F)F)=N1	inconclusive: 5.01 µM [activator, single point]	
CCCNC(=O)N1[C@H]2CC[C@@H]1C(C(=O)OC)=C(c1ccc(F)cc1OCc1ccccc1)C2	inconclusive: 20 µM [activator, partial curve, poor fit]	
COc1ccc2c(c1)c(CCN1CCOCC1)c(C)n2C(=O)c1cccc(Cl)c1Cl	inconclusive: 3.26 µM [activator, single point]	
CCCCCCN=C(CC)c1c(O)n(CCCC)c(=O)[nH]c1=O	inconclusive: 25.1 µM [activator, single point]	
C[C@H]1CCCC(=O)CCC/C=C/c2cc(O)cc(O)c2C(=O)O1	inconclusive: 15.8 µM [activator, partial curve]	
CCCN(CCC)CCc1c[nH]c2ccc(C(N)=O)cc12	inconclusive: 5.8 µM [activator, full curve, poor fit]	
NC1CC1c1ccccc1 (configuration not stated)	inconclusive: 3.66 µM [activator, single point]	
Cc1cccc(NP(=O)(Oc2ccccc2F)Oc2ccccc2F)c1	inconclusive: 14.1 µM [activator, partial curve]	
Cc1nonc1OCCNc1ccc([N+](=O)[O-])c2cccnc12	inconclusive: 12.6 µM [activator, partial curve]	
COC(=O)C1=C(c2ccc(-c3ccccc3)c(F)c2)C[C@@H]2CC[C@H]1N2C(=O)NCc1ccc(F)cc1	inconclusive: 11.2 µM [activator, partial curve]	
CC12CCC3C(CCC4=C(O)C(=O)CCC43C)C1CCC2=O (configuration not stated)	inconclusive: 29.1 µM [activator, single point]	
CC(CN1CCOCC1)OC(=O)Cc1ccccc1 (configuration not stated)	inconclusive: 12.6 µM [activator, partial curve]	
CC1=CC(=C2C(=O)NC(=O)NC2=O)C=C(C(F)(F)F)N1C(C)C		inactive: 0.423%
O=c1c2ccccc2nc(/C=C/c2ccc(F)cc2)n1-c1ccccc1O	inconclusive: 1.58 µM [activator, partial curve]	
COC(=O)C1=C(c2ccc(Cl)c(C(F)(F)F)c2)C[C@@H]2CC[C@H]1N2C(=O)NCc1ccc2c(c1)OCO2	inconclusive: 20 µM [activator, partial curve]	
Cc1cc(C)n(-c2ccc(NN=C(C#N)C#N)cc2)n1		inactive: -14.9%
C[C@@H]1O[C@@H](O[C@H]2C[C@@H](O)[C@]3(CO)[C@H]4[C@H](O)C[C@]5(C)[C@@H](C6COC(=O)C6)CC[C@]5(O)[C@@H]4CC[C@]3(O)C2)[C@H](O)[C@H](O)[C@H]1O (some centres not stated)		inactive: 2.24%

SMILES	Potency	growth rescue (activation)
CN(N=O)c1ccc(O)c(O)c1	inconclusive: 6.51 µM [activator, partial curve, poor fit]	
C[C@]12CC[C@@H](O)C[C@@H]1CC[C@@H]1[C@@H]2CC[C@]2(C)C(=O)CC[C@@H]12		inactive: -12.2%
O=C(Cn1nc(-c2ccccc2)ccc1=O)N1CCC2(CC1)OCCO2	inconclusive: 0.562 µM [activator, full curve, poor fit]	
Oc1ccccc1/C=N/NP(=S)(c1ccccc1)c1ccccc1	inconclusive: 35.5 µM [activator, single point]	
O=C(c1ccc(Cl)cc1)C1CCCN(Cc2ccc3ncccc3c2)C1 (configuration not stated)	inconclusive: 11.2 µM [activator, partial curve]	
CCOP(=O)(OCC)/C(C#N)=C/c1ccc(-c2ccc(F)cc2F)o1	inconclusive: 17.8 µM [activator, partial curve]	
O=C(Cn1ncc2c3ccccc3n(Cc3cccc(Cl)c3)c2c1=O)N1CCC2(CC1)OCCO2	inconclusive: 35.5 µM [activator, single point]	
O=C(CCn1c(=O)oc2ccccc21)N1CCN(C(c2ccccc2)c2ccccc2)CC1	inconclusive: 8.91 µM [activator, partial curve]	
CCCC1COC(Cn2cncn2)(c2ccc(Cl)cc2Cl)O1 (configuration not stated)	inconclusive: 0.562 µM [activator, full curve]	
C=C[C@H]1CN2CC[C@H]1C[C@H]2[C@H](O)c1ccnc2ccccc12		inactive: 3.76%
COC(=O)C1=C(c2ccc(OCc3ccccc3)cc2)C[C@@H]2CC[C@H]1N2C(=O)NCc1cccc(OC)c1	inconclusive: 22.4 µM [activator, single point]	
Cn1c(=O)oc2cc(S(=O)(=O)Nc3cccc([N+](=O)[O-])c3)ccc21	inconclusive: 0.501 µM [activator, full curve, poor fit]	
CCCCNC(=O)c1c(N)n(CCCOC)c2nc3ccccc3nc12	inconclusive: 25.1 µM [activator, single point]	
COP(=O)(/C=C(\Cl)c1ccccc1)/C=C(\Cl)c1ccccc1	inconclusive: 2.51 µM [activator, full curve, poor fit]	
Cc1nc2ccccc2c(=O)n1-c1cccc(C(F)(F)F)c1		inactive: 4.81%
COC(=O)C1=C(c2ccc(-c3ccccc3)c(F)c2)C[C@@H]2CC[C@H]1N2C(=O)NCCOc1ccccc1	inconclusive: 14.1 µM [activator, partial curve]	
CN1C(=O)C(=Cc2cccnc2)C(=O)N(C)C1=O		inactive: -2.06%
C=CCN1CCc2cccc3c2[C@H]1Cc1ccc(O)c(O)c1-3	active: 4.11 µM	
c1ccc2sc(NC3=NCCN3)nc2c1	active: 3.16 µM	
COC(=O)C1=C(c2ccc(-c3ccccc3)c(F)c2)C[C@@H]2CC[C@H]1N2C(=O)NCCOc1ccccc1Cl	inconclusive: 11.2 µM [activator, partial curve]	
COc1ccc(C2=CC(c3ccc(OC)c(OC)c3)c3c(c4ccccc4oc3=O)O2)cc1OC (configuration not stated)	inconclusive: 12.6 µM [activator, partial curve]	

4 compounds picked at random from those above, as already listed:
SMILES	Potency	growth rescue (activation)
O=C(Cn1ncc2c3ccccc3n(Cc3cccc(Cl)c3)c2c1=O)N1CCC2(CC1)OCCO2	inconclusive: 35.5 µM [activator, single point]	
COC(=O)C1=C(c2ccc(OCc3ccccc3)cc2)C[C@@H]2CC[C@H]1N2C(=O)NCc1cccc(OC)c1	inconclusive: 22.4 µM [activator, single point]	
Cc1nc2ccccc2c(=O)n1-c1cccc(C(F)(F)F)c1		inactive: 4.81%
O=C(Cn1nc(-c2ccccc2)ccc1=O)N1CCC2(CC1)OCCO2	inconclusive: 0.562 µM [activator, full curve, poor fit]	
